The values that follow come from PMC6400584, “Activation mechanism of ATP-sensitive K^+ channels explored with real-time nucleotide binding” (eLife, 2019).

Data set [1] relates to SUR1-T1397*/Kir6.2. Kind of data set: Current inhibition in inside-out patches in the absence of Mg2+. In kind it is biochemical, Homo sapiens. The protocol:
(§1) Currents were recorded from inside-out membrane patches excised from transfected HEK-293T cells. Pipettes were pulled to a resistance of 1–5 MΩ and filled with an extracellular solution containing (in mM) 140 KCl, 1.2 MgCl2, 2.6 CaCl2, and 10 HEPES, pH 7.4 or 140 KCl, 1 EGTA, 10 HEPES, pH 7.3. The intracellular (bath) solutions contained either (in mM) 107 KCl, 2 MgCl2, 1 CaCl2, 10 EGTA, and 10 HEPES, pH 7.2 for experiments showing nucleotide-dependent activation or 140 KCl, 1 EDTA, 1 EGTA, 10 HEPES pH 7.3 for experiments showing nucleotide-dependent inhibition. Nucleotides were added as indicated. Patches were perfused with an 8-channel µFlow perfusion system. Data were acquired at a holding potential of −60 mV using an Axopatch 200B amplifier and Digidata 1322A digitizer with pClamp 9.0 software (Molecular Devices). Currents were digitized at 10 kHz and low-pass filtered at 1 kHz. KATP channels run down in excised patches (reviewed by Proks et al.) ([Proks et al., 2016]). For inhibitory concentration-response relationships, rundown was corrected by alternating test nucleotide solutions with nucleotide-free (control) solutions and expressing the test currents as a fraction of the average of the control currents before and after the test solution. […]

Data set [2] concerns T1, SUR1-T1397*/Kir6.2-G334D.
T1 construct: confirmed that >95% of SUR1-T1397* was full length; expressed in transfected cells; host or cells: HEK-293T
Kind of data set: Current activation in inside-out patches. In kind it is biochemical, Homo sapiens. As for the experimental part:
as §1

`Nc1ncnc2c1ncn2[C@@H]1O[C@H](COP(=O)(O)OP(=O)(O)OP(=O)(O)O)[C@@H](O)[C@H]1O` [ATP]: the h in data set [1] (Equation 4 fit to combined data) is −1.1 ± 0.1; in data set [1] (mean ± SEM of fits of Equation 4 to individual experiments), −1.2 ± 0.1.
In the case of `Nc1ncnc2c1ncn2[C@@H]1O[C@H](COP(=O)([O-])OP(=O)([O-])O)[C@@H](O)[C@H]1O.[Mg+2]` [MgADP], the “h (current activation)” value in data set [2] (Equation 5 fit to combined data) turned out to be 1.2 ± 0.2; in data set [2] (mean ± SEM of fits of equation 5 to individual experiments), 1.5 ± 0.3.
